Reference: EP0388510A1, “Pharmaceutical compositions and their use in the prophylaxis or the treatment of bacterial infectious diseases” (HOECHST AKTIENGESELLSCHAFT, priority 1989, dated 1990)
The name of at least one read-out is uncertain.

Test system: Staphylococcus aureus
Assay: Agar dilution test, checkerboard method, FIC according to Berenbaum, cephalosporin derivatives combined with Decaplanin
Type: cell-based
Conditions: in combination with Decaplanin

Structure (SMILES) | FIC (Nach Berenbaum) (strain 692 E) | FIC (Nach Berenbaum) (strain 697 E) | FIC (Nach Berenbaum) (strain 706 E) | FIC (Nach Berenbaum) (strain 711a E)
CC(C)(O/N=C(\C(=O)N[C@@H]1C(=O)N2C(C(=O)[O-])=C(C[n+]3ccccc3)CS[C@H]12)c1csc(N)n1)C(=O)O [Ceftazidim] | 0,156 | 0,313 | 0,313 | 0,156
CO/N=C(\C(=O)N[C@@H]1C(=O)N2C(C(=O)[O-])=C(C[N+]34CCC(C(N)=O)(CC3)CC4)CS[C@H]12)c1nsc(N)n1 [E 1040] | 0,25 | 0,375 | 0,188 | 0,047
